PubChem BioAssay AID743121 – NCATS | 2013

- Assay: 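Knock-downs that sensitise breast cancer cells to camptothecin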 (primary screen)
- System: MDA-MB-231 cells, a human breast cancer line
- Reagents: single siRNA against human genes, 20 nM siRNA (0.8 pmol per well)
- Time to read-out: 120 h (drug added 48 h after transfection, read 72 h later)
- Treatment: camptothecin 20 nM (about EC30) for 72 h; vehicle 0.1% DMSO in parallel plates
- Detection: 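Cell viability by ATP luminescence (CellTiter-Glo) as % of non-targeting siRNA wells, and the log2 ratio of viability without drug over viability with camptothecin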
- Scale: log2 vehicle/camptothecin viability: higher = stronger sensitisation to camptothecin
- Hit rule: 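Active genes have an RSA gene-level p-value below 0.001, computed from the ratios of their separate siRNAs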
This is a random part of about 26,000 reagents tested. Over the whole deposit, 167 (0.63%) got an active call. 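Calls are per gene from RSA p-values that are not deposited; an individual active-marked siRNA can sensitise only weakly.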 Unmarked entries are inactive. Reagents against one gene are numbered here. Not all columns of the deposit are shown.

log2 vehicle/camptothecin viability, by gene and reagent
PARD3 (GeneID 56288): #1 -0.268; #2 -0.511; #3 -0.102; #4 0.715
MORN2 (GeneID 729967): #1 -0.348; #2 -0.186; #3 0.154; #4 0.00938
RPS6KA4 (GeneID 8986): #1 0.687; #2 -0.116; #3 -0.418; #4 -0.482
PIDD1 (GeneID 55367): #1 -0.0314; #2 0.0291; #3 0.468; #4 -0.0607
TRIM50 (GeneID 135892): #1 -0.038; #2 -0.663; #3 -0.682
MS4A15 (GeneID 219995): #1 -0.154; #2 0.545; #3 -0.567; #4 0.125

Records above whose gene name starts with R or r (4):
log2 vehicle/camptothecin viability, by gene and reagent
RPS6KA4 (GeneID 8986): #1 0.687; #2 -0.116; #3 -0.418; #4 -0.482

More records:
log2 vehicle/camptothecin viability, by gene and reagent
FMO4 (GeneID 2329): #1 -0.452; #2 -0.264; #3 -0.344; #4 -0.349
SNRPG (GeneID 6637): #1 -0.369; #2 -0.253; #3 -0.671
CD8B (GeneID 926): #1 -0.589; #2 -0.664; #3 -0.0414; #4 -0.262; #5 -0.34; #6 0.0288
ANGPTL1 (GeneID 9068): #1 -0.491; #2 -0.0891; #3 0.163; #4 -0.33
STAP1 (GeneID 26228): #1 -0.1; #2 0.287; #3 0.743; #4 -0.243
PSMA8 (GeneID 143471): #1 -0.533; #2 -0.0433; #3 -0.376; #4 -0.576
MAP3K20 (GeneID 51776): #1 -0.314; #2 -0.0645; #3 0.472; #4 -0.228
PRX (GeneID 57716): #1 0.0227; #2 -0.297; #3 0.0624; #4 -0.301
IGFBP3 (GeneID 3486): #1 -0.448; #2 -0.153; #3 0.126
CDK4 (GeneID 1019): #1 -0.0254; #2 -0.666; #3 -0.273; #4 -0.196
MAD2L1BP (GeneID 9587): #1 0.45; #2 0.0935; #3 -0.00169; #4 -0.0452
NRP1 (GeneID 8829): #1 -0.0755; #2 -0.115; #3 -0.0558; #4 -0.301
